Experimental data taken from publication PMC10458163.
These are yes or no findings as the source states them, for the method shown. Binding seen in cells or lysates may run through a third protein. Some binding calls cover weakened binding; strength is not graded here. Where a sequence is shown, tags or fusion partners need not be part of it. Each block holds one binder with its values, some of them ahead of it.

Protein sequences, listed by entry. Tags and fused reporters are not part of them. Lines headed by an entry give the natural chain unless they say otherwise; changes in a name come on top.
UniProt P61088: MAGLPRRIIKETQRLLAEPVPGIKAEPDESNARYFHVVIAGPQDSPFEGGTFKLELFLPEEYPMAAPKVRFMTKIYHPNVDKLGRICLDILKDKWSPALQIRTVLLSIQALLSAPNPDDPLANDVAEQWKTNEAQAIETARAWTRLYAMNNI

Key:
Flag-UBC13 = Flag-UBC13 (UniProt P61088); test: co-IP
Flag-UBC13-C87A = Flag-UBC13-C87A (UniProt P61088); test: co-IP

binding (Flag-UBC13): binds
B1: HA-OTUD6A d1-100 (domain or fragment, UniProt Q7L8S5 101-288)
chain: MESEERERQESIFQAEMSEHLAGFKREEEEKLAAILGARGLEMKAIPADGHCMYRAIQDQLVFSVSVEMLRCRTASYMKKHVDEFLPFFSNPETSDSFGYDDFMIYCDNIVRTTAWGGQLELRALSHVLKTPIEVIQADSPTLIIGEEYVKKPIILVYLRYAYSLGEHYNSVTPLEAGAAGGVLPRLL

binding (Flag-UBC13): binds
B2: HA-OTUD6A d1-50 (domain or fragment, UniProt Q7L8S5 51-288)
chain: MEAEMAQKHRQELEKFQDDSSIESVVEDLAKMNLENRPPRSSKAHRKRERMESEERERQESIFQAEMSEHLAGFKREEEEKLAAILGARGLEMKAIPADGHCMYRAIQDQLVFSVSVEMLRCRTASYMKKHVDEFLPFFSNPETSDSFGYDDFMIYCDNIVRTTAWGGQLELRALSHVLKTPIEVIQADSPTLIIGEEYVKKPIILVYLRYAYSLGEHYNSVTPLEAGAAGGVLPRLL

binding (Flag-UBC13-C87A): binds
binding (Flag-UBC13): binds
B3: HA-OTUD6A fl (enzyme, UniProt Q7L8S5 1-288)
chain: MDDPKSEQQRILRRHQRERQELQAQIRSLKNSVPKTDKTKRKQLLQDVARMEAEMAQKHRQELEKFQDDSSIESVVEDLAKMNLENRPPRSSKAHRKRERMESEERERQESIFQAEMSEHLAGFKREEEEKLAAILGARGLEMKAIPADGHCMYRAIQDQLVFSVSVEMLRCRTASYMKKHVDEFLPFFSNPETSDSFGYDDFMIYCDNIVRTTAWGGQLELRALSHVLKTPIEVIQADSPTLIIGEEYVKKPIILVYLRYAYSLGEHYNSVTPLEAGAAGGVLPRLL
